Reference: patent US20250360057A1, “ENHANCING DENTIN BONDING DURABILITY USING QUATERNARY PYRIDINIUM SALTS” (ADA Science and Research Institute LLC, priority 2022, published 2025)

Experiment: Microtensile bond strength (μTBS) with thermal cycling for bonding durability
Details: experimental and commercial adhesives with approximately 0.25-0.5 wt % additive, before thermal cycling

With `C=C(C)C(=O)Oc1ccc(/N=N/c2cc[n+](CCCCCCCCCCCCCCCC)cc2)cc1.[Br-]` [Azo-QPS-C16, (E)-1-hexadecyl-4-((4-(methacryloyloxy)phenyl)diazenyl)-pyridinium bromide] as the molecule, how does the μTBS read?
The μTBS was greater than 35 MPa.
